The target in one test is T1, hNKCC1A (Homo sapiens, UniProt P55011).
T1 construct: Full-length NKCC1 (NKCC1A) comprises ~1200 amino acids; expressed in transfected cells; host or cells: Xenopus laevis oocytes injected with cRNA (pXOOM vector)
T1 sequence (P55011 1-1212): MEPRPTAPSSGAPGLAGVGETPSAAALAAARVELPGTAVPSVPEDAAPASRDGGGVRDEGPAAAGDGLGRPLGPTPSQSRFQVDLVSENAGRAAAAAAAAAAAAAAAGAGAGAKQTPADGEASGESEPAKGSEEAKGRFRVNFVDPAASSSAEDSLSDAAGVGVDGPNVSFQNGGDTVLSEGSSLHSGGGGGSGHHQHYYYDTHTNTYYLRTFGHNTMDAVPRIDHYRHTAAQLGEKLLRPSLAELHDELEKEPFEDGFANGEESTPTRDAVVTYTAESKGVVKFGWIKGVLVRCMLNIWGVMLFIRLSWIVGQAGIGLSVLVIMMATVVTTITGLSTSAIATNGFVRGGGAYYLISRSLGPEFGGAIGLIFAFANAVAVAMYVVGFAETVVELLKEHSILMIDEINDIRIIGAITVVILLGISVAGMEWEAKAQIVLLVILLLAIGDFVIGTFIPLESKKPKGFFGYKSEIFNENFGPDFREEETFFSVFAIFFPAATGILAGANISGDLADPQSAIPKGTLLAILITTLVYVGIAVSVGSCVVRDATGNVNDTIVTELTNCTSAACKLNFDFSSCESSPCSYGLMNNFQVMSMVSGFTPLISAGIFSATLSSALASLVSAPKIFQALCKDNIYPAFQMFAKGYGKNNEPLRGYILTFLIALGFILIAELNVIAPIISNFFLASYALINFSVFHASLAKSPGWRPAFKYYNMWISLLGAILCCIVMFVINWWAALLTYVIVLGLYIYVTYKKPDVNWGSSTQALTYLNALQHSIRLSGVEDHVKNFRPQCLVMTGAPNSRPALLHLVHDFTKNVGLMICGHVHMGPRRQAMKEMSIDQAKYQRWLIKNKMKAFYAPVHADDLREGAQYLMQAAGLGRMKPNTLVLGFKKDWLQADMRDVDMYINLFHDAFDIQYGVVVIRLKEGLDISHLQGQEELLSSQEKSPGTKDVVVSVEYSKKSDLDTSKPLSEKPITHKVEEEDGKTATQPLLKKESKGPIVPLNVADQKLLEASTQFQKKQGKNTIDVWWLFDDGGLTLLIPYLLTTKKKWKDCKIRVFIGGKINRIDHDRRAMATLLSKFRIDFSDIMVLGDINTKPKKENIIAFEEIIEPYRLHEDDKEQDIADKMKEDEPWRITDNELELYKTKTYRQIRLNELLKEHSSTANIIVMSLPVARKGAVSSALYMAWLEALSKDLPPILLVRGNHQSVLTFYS
Briefly: 86Rb+ uptake in hNKCC1A-expressing Xenopus laevis oocytes. In kind it is cell-based.

The next test concerns the target T2, hNKCC1B (Homo sapiens, UniProt P55011).
T2 construct: expressed in transfected cells; host or cells: Xenopus laevis oocytes injected with cRNA (pXOOM vector)
T2 sequence (P55011 1-1196 isoform P55011-3): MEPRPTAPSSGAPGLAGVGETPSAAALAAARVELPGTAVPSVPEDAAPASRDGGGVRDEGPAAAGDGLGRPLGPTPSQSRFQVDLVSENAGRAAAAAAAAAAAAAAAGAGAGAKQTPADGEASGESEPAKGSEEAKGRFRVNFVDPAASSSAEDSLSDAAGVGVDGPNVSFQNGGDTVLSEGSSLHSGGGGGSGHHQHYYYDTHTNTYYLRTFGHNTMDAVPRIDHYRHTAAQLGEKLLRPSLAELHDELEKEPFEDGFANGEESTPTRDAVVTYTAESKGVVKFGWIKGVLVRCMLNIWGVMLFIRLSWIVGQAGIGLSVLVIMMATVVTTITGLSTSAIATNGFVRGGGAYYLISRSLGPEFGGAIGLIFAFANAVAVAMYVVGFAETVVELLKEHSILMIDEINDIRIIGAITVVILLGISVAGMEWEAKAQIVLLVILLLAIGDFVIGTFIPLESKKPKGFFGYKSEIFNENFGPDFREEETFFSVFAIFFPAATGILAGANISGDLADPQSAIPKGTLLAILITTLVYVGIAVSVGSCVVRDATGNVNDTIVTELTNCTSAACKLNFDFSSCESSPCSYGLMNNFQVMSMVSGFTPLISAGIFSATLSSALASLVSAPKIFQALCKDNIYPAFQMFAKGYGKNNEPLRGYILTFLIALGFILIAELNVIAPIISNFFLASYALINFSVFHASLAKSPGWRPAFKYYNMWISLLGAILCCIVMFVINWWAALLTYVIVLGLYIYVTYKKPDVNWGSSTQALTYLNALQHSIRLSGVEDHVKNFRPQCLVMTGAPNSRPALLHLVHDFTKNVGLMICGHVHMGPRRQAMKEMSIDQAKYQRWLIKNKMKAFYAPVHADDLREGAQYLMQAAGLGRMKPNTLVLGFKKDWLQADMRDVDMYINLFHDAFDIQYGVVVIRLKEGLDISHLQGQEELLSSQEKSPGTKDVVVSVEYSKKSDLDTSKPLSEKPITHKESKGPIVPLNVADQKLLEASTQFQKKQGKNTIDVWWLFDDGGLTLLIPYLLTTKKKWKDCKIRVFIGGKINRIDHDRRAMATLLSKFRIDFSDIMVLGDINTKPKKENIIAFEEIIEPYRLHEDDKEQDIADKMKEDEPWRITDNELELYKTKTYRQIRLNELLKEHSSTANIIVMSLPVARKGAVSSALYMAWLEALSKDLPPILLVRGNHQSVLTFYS
Briefly: 86Rb+ uptake in hNKCC1B-expressing Xenopus laevis oocytes. In kind it is cell-based. As to conditions: 5 min, corrected for uninjected oocytes, median and range of 3–7 experiments. As to the method:
Human NKCC1A (NM_001046, obtained from Prof. […] To obtain the cDNA encoding NKCC1B, two rounds of PCR (each deleting 24 base pairs from the sequence) was carried out with the following primer sets: […] The entire sequence of the final construct was verified against hNKCC1B (NM_001256461). […] To measure K^+ influx, oocytes were exposed to an isosmotic test solution in which KCl (5 mM) replaced choline chloride, and 2 μCi/mL ^86Rb^+ (NEZ072, PerkinElmer, Rodgau, Germany) were included as a tracer for K^+. Osmolarities of the test media were verified by using an osmometer (Type 15, Löser; Berlin, Germany). […] Median rather than mean values were used because oocyte data on ^86Rb^+ uptake measurements were not normally distributed. […] Significance of differences in transport activity of hNKCC1A or hNKCC1B expressing oocytes vs. uninjected oocytes were analyzed by the Kruskal-Wallis test followed by Dunn's multiple comparisons test. […] A P < 0.05 was considered significant.

For a further test, the system named is hNKCC2 isoform F. Particulars: Xenopus oocytes; ref Gillen et al.[55]; Carota et al.[56]; read-out: IC50 (µM) NKCC2 (hF); cited from earlier work.

Consider `NS(=O)(=O)c1cc(C(=O)O)c(NCc2ccco2)cc1Cl` [Furosemide], for which the 50% inhibitory concentration (IC50) was 5.15 µM against hNKCC1A (86Rb+ uptake, Xenopus oocytes, 5 min, corrected for uninjected oocytes, median and range of 3–7 experiments); 5.82 µM at hNKCC1B; 10.6 µM in the test on hNKCC2 isoform F. Besides, the “Ratio hNKCC1A/ hNKCC1B” value at hNKCC1A (ratio of IC50s) is given as 0.885.

As usually defined, the IC50 is the concentration that inhibits the measured activity by half.
